Protein sequences, listed by entry. Tags and fused reporters are not part of them. Lines headed by an entry give the natural chain unless they say otherwise; changes in a name come on top.
UniProt Q96A61: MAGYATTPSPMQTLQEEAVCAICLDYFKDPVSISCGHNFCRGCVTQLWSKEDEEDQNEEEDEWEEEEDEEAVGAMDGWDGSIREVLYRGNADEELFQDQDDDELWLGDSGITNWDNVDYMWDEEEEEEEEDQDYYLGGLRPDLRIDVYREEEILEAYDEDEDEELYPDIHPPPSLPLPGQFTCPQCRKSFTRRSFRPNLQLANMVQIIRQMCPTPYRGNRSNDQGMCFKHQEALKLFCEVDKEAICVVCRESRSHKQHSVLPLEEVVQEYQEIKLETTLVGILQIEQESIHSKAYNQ
UniProt Q9NR09: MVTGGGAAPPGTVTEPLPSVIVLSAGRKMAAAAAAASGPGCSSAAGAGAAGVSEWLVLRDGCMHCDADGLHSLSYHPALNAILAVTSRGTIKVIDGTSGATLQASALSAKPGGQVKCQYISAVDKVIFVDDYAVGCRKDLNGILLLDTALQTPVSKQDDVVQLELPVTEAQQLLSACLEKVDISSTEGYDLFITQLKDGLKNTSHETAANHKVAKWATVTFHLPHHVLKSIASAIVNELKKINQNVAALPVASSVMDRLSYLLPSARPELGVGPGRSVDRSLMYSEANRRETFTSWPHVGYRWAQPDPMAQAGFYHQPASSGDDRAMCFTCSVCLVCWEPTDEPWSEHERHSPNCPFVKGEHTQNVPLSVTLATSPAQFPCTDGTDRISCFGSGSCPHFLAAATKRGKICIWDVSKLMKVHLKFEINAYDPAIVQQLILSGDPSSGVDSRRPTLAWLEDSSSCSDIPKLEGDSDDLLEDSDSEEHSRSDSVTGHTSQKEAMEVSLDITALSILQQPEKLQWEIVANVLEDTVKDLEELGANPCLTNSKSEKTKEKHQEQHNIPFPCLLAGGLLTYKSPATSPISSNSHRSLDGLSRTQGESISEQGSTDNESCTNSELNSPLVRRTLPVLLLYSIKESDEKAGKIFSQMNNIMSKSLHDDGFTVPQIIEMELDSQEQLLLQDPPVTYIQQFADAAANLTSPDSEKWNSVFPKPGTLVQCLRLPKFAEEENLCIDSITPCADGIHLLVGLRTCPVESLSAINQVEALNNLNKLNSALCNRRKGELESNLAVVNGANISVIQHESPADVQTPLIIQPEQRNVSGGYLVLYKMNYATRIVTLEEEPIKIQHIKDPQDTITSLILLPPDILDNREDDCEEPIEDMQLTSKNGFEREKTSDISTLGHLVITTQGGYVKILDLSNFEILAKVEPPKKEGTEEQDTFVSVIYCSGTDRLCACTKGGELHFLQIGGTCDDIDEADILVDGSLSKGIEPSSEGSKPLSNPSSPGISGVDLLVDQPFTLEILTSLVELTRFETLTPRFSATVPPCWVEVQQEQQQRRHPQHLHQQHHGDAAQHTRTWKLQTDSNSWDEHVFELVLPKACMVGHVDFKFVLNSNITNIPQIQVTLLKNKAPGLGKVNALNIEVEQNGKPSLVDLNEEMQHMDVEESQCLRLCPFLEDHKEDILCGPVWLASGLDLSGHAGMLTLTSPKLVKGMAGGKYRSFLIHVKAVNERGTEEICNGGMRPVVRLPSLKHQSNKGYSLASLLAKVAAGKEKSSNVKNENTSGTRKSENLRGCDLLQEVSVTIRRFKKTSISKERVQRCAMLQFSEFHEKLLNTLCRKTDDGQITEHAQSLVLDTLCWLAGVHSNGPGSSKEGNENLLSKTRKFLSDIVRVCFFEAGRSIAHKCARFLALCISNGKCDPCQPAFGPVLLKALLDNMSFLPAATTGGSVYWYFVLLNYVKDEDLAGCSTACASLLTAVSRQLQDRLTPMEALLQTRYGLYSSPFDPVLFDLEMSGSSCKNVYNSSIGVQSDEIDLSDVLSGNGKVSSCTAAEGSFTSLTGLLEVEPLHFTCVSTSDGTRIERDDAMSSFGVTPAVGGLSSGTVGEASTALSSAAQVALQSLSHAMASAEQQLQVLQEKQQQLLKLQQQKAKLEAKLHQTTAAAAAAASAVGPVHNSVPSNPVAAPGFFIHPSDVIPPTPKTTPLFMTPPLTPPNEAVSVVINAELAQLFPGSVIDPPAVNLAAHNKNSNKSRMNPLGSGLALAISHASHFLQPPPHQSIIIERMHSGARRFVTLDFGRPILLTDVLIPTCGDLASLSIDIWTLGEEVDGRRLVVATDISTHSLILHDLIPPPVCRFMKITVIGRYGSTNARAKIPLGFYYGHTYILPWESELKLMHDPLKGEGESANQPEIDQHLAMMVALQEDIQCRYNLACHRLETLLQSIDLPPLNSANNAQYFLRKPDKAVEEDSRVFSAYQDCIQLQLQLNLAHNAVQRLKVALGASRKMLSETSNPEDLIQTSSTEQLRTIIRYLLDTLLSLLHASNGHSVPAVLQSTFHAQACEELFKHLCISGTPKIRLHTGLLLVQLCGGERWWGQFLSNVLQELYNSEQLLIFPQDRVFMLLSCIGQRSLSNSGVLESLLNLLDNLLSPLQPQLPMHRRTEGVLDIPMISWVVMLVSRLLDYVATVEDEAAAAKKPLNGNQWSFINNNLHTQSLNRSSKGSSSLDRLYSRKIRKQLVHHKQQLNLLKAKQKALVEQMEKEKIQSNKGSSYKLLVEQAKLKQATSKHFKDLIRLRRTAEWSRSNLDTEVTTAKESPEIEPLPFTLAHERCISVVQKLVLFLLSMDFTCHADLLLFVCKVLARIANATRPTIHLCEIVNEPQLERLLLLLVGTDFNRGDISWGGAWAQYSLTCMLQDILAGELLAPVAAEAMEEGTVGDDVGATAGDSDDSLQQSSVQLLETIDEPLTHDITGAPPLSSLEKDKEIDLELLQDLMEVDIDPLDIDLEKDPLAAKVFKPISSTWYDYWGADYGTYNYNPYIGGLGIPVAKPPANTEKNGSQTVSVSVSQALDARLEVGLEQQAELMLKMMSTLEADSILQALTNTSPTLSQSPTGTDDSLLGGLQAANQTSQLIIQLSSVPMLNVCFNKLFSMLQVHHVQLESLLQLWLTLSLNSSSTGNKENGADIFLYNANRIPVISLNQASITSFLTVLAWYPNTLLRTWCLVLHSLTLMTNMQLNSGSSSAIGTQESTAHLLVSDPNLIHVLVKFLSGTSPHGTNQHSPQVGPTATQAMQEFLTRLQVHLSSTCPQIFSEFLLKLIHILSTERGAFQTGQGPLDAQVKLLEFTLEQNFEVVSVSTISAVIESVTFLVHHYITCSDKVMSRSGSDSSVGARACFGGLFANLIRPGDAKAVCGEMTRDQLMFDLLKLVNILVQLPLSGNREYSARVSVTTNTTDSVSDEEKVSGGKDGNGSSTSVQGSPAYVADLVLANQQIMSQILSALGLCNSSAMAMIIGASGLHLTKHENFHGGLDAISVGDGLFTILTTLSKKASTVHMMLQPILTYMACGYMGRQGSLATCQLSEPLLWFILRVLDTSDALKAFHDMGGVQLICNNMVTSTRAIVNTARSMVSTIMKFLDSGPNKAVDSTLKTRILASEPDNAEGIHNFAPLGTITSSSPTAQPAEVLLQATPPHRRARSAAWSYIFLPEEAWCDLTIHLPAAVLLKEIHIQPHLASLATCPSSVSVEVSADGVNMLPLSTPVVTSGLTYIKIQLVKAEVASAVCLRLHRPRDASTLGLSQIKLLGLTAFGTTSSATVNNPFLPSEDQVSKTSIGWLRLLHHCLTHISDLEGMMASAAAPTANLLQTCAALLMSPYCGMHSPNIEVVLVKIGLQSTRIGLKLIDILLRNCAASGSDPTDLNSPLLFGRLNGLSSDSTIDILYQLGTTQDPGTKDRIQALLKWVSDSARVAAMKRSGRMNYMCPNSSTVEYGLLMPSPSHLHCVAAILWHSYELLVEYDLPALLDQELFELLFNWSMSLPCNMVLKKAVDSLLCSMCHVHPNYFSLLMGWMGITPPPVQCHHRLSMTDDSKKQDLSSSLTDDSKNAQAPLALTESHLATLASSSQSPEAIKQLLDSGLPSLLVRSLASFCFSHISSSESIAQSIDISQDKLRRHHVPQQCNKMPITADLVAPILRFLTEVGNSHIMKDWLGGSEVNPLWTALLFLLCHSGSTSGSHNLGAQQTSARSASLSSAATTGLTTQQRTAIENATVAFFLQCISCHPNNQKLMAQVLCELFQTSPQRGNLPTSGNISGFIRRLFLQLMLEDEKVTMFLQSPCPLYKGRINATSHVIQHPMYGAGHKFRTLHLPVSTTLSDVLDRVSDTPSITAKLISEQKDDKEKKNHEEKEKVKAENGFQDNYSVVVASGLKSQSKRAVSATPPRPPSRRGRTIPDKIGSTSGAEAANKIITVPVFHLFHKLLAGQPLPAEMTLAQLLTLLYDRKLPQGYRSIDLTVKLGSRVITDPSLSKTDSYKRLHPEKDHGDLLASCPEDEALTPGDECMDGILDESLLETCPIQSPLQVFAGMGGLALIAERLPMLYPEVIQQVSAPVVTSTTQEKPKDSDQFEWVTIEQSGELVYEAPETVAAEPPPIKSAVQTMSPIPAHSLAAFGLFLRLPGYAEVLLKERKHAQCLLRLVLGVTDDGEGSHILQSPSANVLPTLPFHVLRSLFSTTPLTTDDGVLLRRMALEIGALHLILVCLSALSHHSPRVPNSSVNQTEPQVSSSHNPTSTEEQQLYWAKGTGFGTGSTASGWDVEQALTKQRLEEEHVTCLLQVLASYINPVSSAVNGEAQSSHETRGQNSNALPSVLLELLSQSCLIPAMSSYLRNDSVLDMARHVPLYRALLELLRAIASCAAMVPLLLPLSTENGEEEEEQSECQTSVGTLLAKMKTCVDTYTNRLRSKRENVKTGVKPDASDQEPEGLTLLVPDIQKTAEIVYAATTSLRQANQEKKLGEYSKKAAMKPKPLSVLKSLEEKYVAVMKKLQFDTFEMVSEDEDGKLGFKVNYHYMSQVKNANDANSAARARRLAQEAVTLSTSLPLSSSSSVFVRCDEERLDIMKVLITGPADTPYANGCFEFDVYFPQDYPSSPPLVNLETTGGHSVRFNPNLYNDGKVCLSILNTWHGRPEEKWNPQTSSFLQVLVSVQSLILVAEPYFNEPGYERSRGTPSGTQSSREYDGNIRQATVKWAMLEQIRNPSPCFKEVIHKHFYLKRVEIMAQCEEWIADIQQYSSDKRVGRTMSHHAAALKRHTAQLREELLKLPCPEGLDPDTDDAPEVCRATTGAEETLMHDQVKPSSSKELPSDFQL

In paper PMC12022042:

Molecular target: 3xHA-tagged TRIM52 (ΔLoop2) (human) (UniProt Q96A61)
Assay: co-IP; HEK-293T cells expressing 3xHA-tagged TRIM52 or ΔLoop2, treated with epoxomicin for 5 h; Frackelton lysis buffer (50 mM NaCl, 1% Triton X-100); anti-HA antibody and Protein A/G magnetic beads, 4 °C; WB for endogenous E3 ligases

BIRC6 (endogenous) (from UniProt Q9NR09 1-4857) (enzyme)
binding: binds

No constants are given. Whether binding was seen depends on the method and setting. In cells and extracts the contact can be indirect. A result given as binding can be weak or reduced; the word gives no strength.
